In patent US20130066055A1 (Bayer Intellectual Property GmbH, priority 2011, published 2013):

Assay: general procedure: solution-phase peptide synthesis; HATU/DIPEA or EDC/HOBt/DIPEA
Conditions: coupling step, over 2 stages, trifluoroacetate

Substance | step yield [% over 2 stages]
N-methyl-L-valyl-N-[(3R,4S,5S)-1-{(2S)-2-[(1R,2R)-3-{[(2S)-3-(1H-indol-3-yl)-1-(1,2-oxazinan-2-yl)-1-oxopropan-2-yl]amino}-1-methoxy-2-methyl-3-oxopropyl]pyrrolidin-1-yl}-3-methoxy-5-methyl-1-oxoheptan-4-yl]-N-methyl-L-valinamide | 67

Same assay, conditions: coupling step, trifluoroacetate

Substance | step yield
N-[(9H-fluoren-9-ylmethoxy)carbonyl]-N-methyl-L-valyl-N-[(3R,4S,5S)-1-{(2S)-2-[(1R,2R)-2-carboxy-1-methoxypropyl]pyrrolidin-1-yl}-3-methoxy-5-methyl-1-oxoheptan-4-yl]-N-methyl-L-valinamide | 35% of theory
N-(tert-butoxycarbonyl)-N-methyl-L-valyl-N-[(3R,4S,5S)-1-{(2S)-2-[(1R,2R)-3-{[(2S)-1-(benzyloxy)-3-phenylpropan-2-yl]amino}-1-methoxy-2-methyl-3-oxopropyl]pyrrolidin-1-yl}-3-methoxy-5-methyl-1-oxoheptan-4-yl]-N-methyl-L-valinamide | 98% of theory

Same assay, conditions: late stage modification step, over 2 stages, trifluoroacetate

Substance | step yield
N-(6-aminohexyl)-N-methyl-L-valyl-N-[(3R,4S,5S)-1-{(2S)-2-[(1R,2R)-3-{[(2S)-3-(4-hydroxyphenyl)-1-(1,2-oxazinan-2-yl)-1-oxopropan-2-yl]amino}-1-methoxy-2-methyl-3-oxopropyl]pyrrolidin-1-yl}-3-methoxy-5-methyl-1-oxoheptan-4-yl] | 34% of theory over 2 stages

Same assay, conditions: late stage modification step, trifluoroacetate

Substance | step yield | final purity (method not given) [% purity]
N-(tert-butoxycarbonyl)-N-methyl-L-valyl-N-[(3R,4S,5S)-1-{(2S)-2-[(1R,2R)-3-{[(1S)-1-carboxy-2-phenylethyl]amino}-1-methoxy-2-methyl-3-oxopropyl]pyrrolidin-1-yl}-3-methoxy-5-methyl-1-oxoheptan-4-yl]-N-methyl-L-valinamide | 94% of theory | –
N-{6-[(bromoacetyl)amino]hexyl}-N-methyl-L-valyl-N-[(3R,4S,5S)-1-{(2S)-2-[(1R,2R)-3-{[(2S)-3-(1H-indol-3-yl)-1-(1,2-oxazinan-2-yl)-1-oxopropan-2-yl]amino}-1-methoxy-2-methyl-3-oxopropyl]pyrrolidin-1-yl}-3-methoxy-5-methyl-1-oxoheptan-4-yl]-N-methyl-L-valinamide | 26% of theory | –
N-(2-aminoethyl)-N-methyl-L-valyl-N-[(3R,4S,5S)-1-{(2S)-2-[(1R,2R)-3-{[(2S)-3-(1H-indol-3-yl)-1-(1,2-oxazinan-2-yl)-1-oxopropan-2-yl]amino}-1-methoxy-2-methyl-3-oxopropyl]pyrrolidin-1-yl}-3-methoxy-5-methyl-1-oxoheptan-4-yl] | 40% of theory | 65
N-methyl-L-valyl-N-[(3R,4S,5S)-3-methoxy-1-{(2S)-2-[(1R,2R)-1-methoxy-2-methyl-3-{[(2S,3S)-1-(1,2-oxazinan-2-yl)-1-oxo-3-phenylbutan-2-yl]amino}-3-oxopropyl]pyrrolidin-1-yl}-5-methyl-1-oxoheptan-4-yl]-N-methyl-L-valinamide trifluoroacetate | 46% of theory | –
N-(3-carboxypropyl)-N-methyl-L-valyl-N-[(3R,4S,5S)-3-methoxy-1-{(2S)-2-[(1R,2R)-1-methoxy-3-{[(2S)-1-methoxy-1-oxo-3-phenylpropan-2-yl]amino}-2-methyl-3-oxopropyl]pyrrolidin-1-yl}-5-methyl-1-oxoheptan-4-yl]-N-methyl-L-valinamide | 22% of theory | –
N-(6-aminohexyl)-N-methyl-L-valyl-N-[(3R,4S,5S)-3-methoxy-1-{(2S)-2-[(1R,2R)-1-methoxy-2-methyl-3-oxo-3-{[(1S)-2-phenyl-1-(5-phenyl-1,3,4-oxadiazol-2-yl)ethyl]amino}propyl]pyrrolidin-1-yl}-5-methyl-1-oxoheptan-4-yl] | 86% of theory | –
N-{4-[(2,5-dioxopyrrolidin-1-yl)oxy]-4-oxobutyl}-N-methyl-L-valyl-N-[(3R,4S,5S)-3-methoxy-1-{(2S)-2-[(1R,2R)-1-methoxy-2-methyl-3-oxo-3-{[(2R)-1-phenyl-4-(4-sulphophenyl)butan-2-yl]amino}propyl]pyrrolidin-1-yl}-5-methyl-1-oxoheptan-4-yl]-N-methyl-L-valinamide | 25% of theory | 72
N-methyl-L-valyl-N-[(3R,4S,5S)-3-methoxy-1-{(2S)-2-[(1R,2R)-1-methoxy-2-methyl-3-{[(1S,2R)-1-(1,2-oxazinan-2-ylcarbonyl)-2-phenylcyclopropyl]amino}-3-oxopropyl]pyrrolidin-1-yl}-5-methyl-1-oxoheptan-4-yl]-N-methyl-L-valinamide trifluoroacetate | 64% of theory | –
N-[(3R,4S,5S)-1-{(2S)-2-[(1R,2R)-3-{[(2S)-3-(1H-indol-3-yl)-1-(1,2-oxazinan-2-yl)-1-oxopropan-2-yl]amino}-1-methoxy-2-methyl-3-oxopropyl]pyrrolidin-1-yl}-3-methoxy-5-methyl-1-oxoheptan-4-yl]-N-methyl-L-valinamide | 87% of theory | –
N-(tert-butoxycarbonyl)-N-methyl-L-valyl-N-[(3R,4S,5S)-1-{(2S)-2-[(1R,2R)-2-carboxy-1-methoxypropyl]pyrrolidin-1-yl}-3-methoxy-5-methyl-1-oxoheptan-4-yl]-N-methyl-L-valinamide | 91% of theory | –
N-(5-carboxypentyl)-N-methyl-L-valyl-N-[(3R,4S,5S)-1-{(2S)-2-[(1R,2R)-3-{[(2S)-1-(benzyloxy)-1-oxo-3-phenylpropan-2-yl]amino}-1-methoxy-2-methyl-3-oxopropyl]pyrrolidin-1-yl}-3-methoxy-5-methyl-1-oxoheptan-4-yl]-N-methyl-L-valinamide | 75% of theory | –
N-(3-carboxypropyl)-N-methyl-L-valyl-N-[(3R,4S,5S)-3-methoxy-1-{(2S)-2-[(1R,2R)-1-methoxy-2-methyl-3-oxo-3-{[(2S,3E)-1-phenyl-4-(4-sulphophenyl)but-3-en-2-yl]amino}propyl]pyrrolidin-1-yl}-5-methyl-1-oxoheptan-4-yl]-N-methyl-L-valinamide | 80% of theory | 83
N-(3-carboxypropyl)-N-methyl-L-valyl-N-[(3R,4S,5S)-3-methoxy-1-{(2S)-2-[(1R,2R)-1-methoxy-2-methyl-3-oxo-3-{[(2R)-1-phenyl-4-(4-sulphophenyl)butan-2-yl]amino}propyl]pyrrolidin-1-yl}-5-methyl-1-oxoheptan-4-yl]-N-methyl-L-valinamide | 66% of theory | 90
N-methyl-L-valyl-N-[(3R,4S,5S)-3-methoxy-1-{(2S)-2-[(1R,2R)-1-methoxy-2-methyl-3-oxo-3-{[(2R)-1-phenyl-4-(4-sulphophenyl)butan-2-yl]amino}propyl]pyrrolidin-1-yl}-5-methyl-1-oxoheptan-4-yl]-N-methyl-L-valinamide trifluoroacetate | 85% of theory | 90
N-methyl-L-valyl-N-[(3R,4S,5S)-1-{(2S)-2-[(1R,2R)-3-{[(2S)-1-(adamantan-1-ylmethoxy)-1-oxo-3-phenylpropan-2-yl]amino}-1-methoxy-2-methyl-3-oxopropyl]pyrrolidin-1-yl}-3-methoxy-5-methyl-1-oxoheptan-4-yl]-N-methyl-L-valinamide trifluoroacetate | 81% of theory | –
N-methyl-L-valyl-N-[(3R,4S,5S)-1-{(2S)-2-[(1R,2R)-3-{[(1S,2R)-1-hydroxy-1-phenylpropan-2-yl]amino}-1-methoxy-2-methyl-3-oxopropyl]pyrrolidin-1-yl}-3-methoxy-5-methyl-1-oxoheptan-4-yl]-N-methyl-L-valinamide | 52% | –
N-(5-carboxypentyl)-N-methyl-L-valyl-N-[(3R,4S,5S)-3-methoxy-1-{(2S)-2-[(1R,2R)-1-methoxy-2-methyl-3-oxo-3-{[(1S)-2-phenyl-1-(5-phenyl-1,3,4-oxadiazol-2-yl)ethyl]amino}propyl]pyrrolidin-1-yl}-5-methyl-1-oxoheptan-4-yl] | 74% of theory | –
N-methyl-L-valyl-N-[(3R,4S,5S)-1-{(2S)-2-[(1R,2R)-3-{[(2S)-1-(benzylsulphonyl)-3-phenylpropan-2-yl]amino}-1-methoxy-2-methyl-3-oxopropyl]pyrrolidin-1-yl}-3-methoxy-5-methyl-1-oxoheptan-4-yl]-N-methyl-L-valinamide trifluoroacetate | 99% of theory | –
N-methyl-L-valyl-N-[(3R,4S,5S)-3-methoxy-1-{(2S)-2-[(1R,2R)-1-methoxy-2-methyl-3-{[(2S)-1-(1,2-oxazinan-2-yl)-1-oxo-3-phenylpropan-2-yl]amino}-3-oxopropyl]pyrrolidin-1-yl}-5-methyl-1-oxoheptan-4-yl]-N-methyl-L-valinamide trifluoroacetate | 54% of theory | –
N-methyl-L-valyl-N-[(3R,4S,5S)-1-{(2S)-2-[(1R,2R)-3-{[(2S,3E)-1,4-diphenylbut-3-en-2-yl]amino}-1-methoxy-2-methyl-3-oxopropyl]pyrrolidin-1-yl}-3-methoxy-5-methyl-1-oxoheptan-4-yl]-N-methyl-L-valinamide trifluoroacetate | 99% of theory | –
N-methyl-L-valyl-N-[(3R,4S,5S)-3-methoxy-1-{(2S)-2-[(1R,2R)-1-methoxy-2-methyl-3-oxo-3-{[(1R)-2-phenyl-1-(5-phenyl-1,3,4-oxadiazol-2-yl)ethyl]amino}propyl]pyrrolidin-1-yl}-5-methyl-1-oxoheptan-4-yl]-N-methyl-L-valinamide trifluoroacetate | 99% of theory | –
N-methyl-L-valyl-N-[(3R,4S,5S)-3-methoxy-1-{(2S)-2-[(1R,2R)-1-methoxy-2-methyl-3-{[(2S)-1-(2-oxa-3-azabicyclo[2.2.2]oct-5-en-3-yl)-1-oxo-3-phenylpropan-2-yl]amino}-3-oxopropyl]pyrrolidin-1-yl}-5-methyl-1-oxoheptan-4-yl]-N-methyl-L-valinamide trifluoroacetate | 26% of theory | –
